Measurements: the supplement of paper PMC10727501
Where a name gives a salt, the structure may show the parent alone. The list shows a part of the results. This data set is noisy: repeats of one test often differ as much as different tests do.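 Researchers measured free-swimming zebrafish larvae's O-bend response probability to dark flashes (naive: first five; training: remaining flashes of four 60-flash blocks; test: later 60-flash block) and OMR turning toward alternating leftward/rightward LED motion. Six treated larvae were compared to sixty 0.1% DMSO controls, with |SSMD|≥2 marking a hit.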

Tests used:
Conditions in all cases: 10 µM; pre-incubation: 30-90 min
[1] = system: Danio rerio larvae (5 dpf, TLF); assay: OMR-Perf (SSMD vs DMSO vehicle); higher = higher than vehicle (e.g. higher dark-flash O-bend response probability, or better optomotor performance)
[2] = system: Danio rerio larvae (5 dpf, TLF); assay: Prob-Test (SSMD vs DMSO vehicle); higher = higher than vehicle (e.g. higher dark-flash O-bend response probability, or better optomotor performance)
[3] = system: Danio rerio larvae (5 dpf, TLF); assay: Prob-Naive (SSMD vs DMSO vehicle); higher = higher than vehicle (e.g. higher dark-flash O-bend response probability, or better optomotor performance)
[4] = system: Danio rerio larvae (5 dpf, TLF); assay: Prob-Train (SSMD vs DMSO vehicle); higher = higher than vehicle (e.g. higher dark-flash O-bend response probability, or better optomotor performance)

Structure (SMILES) | OMR-Perf [1] | Prob-Test [2] | Prob-Naive [3] | Prob-Train [4]
CCOC(=O)C1=C[C@@H](OC(CC)CC)[C@H](NC(C)=O)[C@@H](N)C1.O=P(=O)OO.[HH] [Oseltamivir phosphate] | -0.128 | -0.338 | 0.478 | 0.243
CC(=O)O.N=C(N)N/N=C/c1c(Cl)cccc1Cl [Guanabenz Acetate] | -0.921 | -1.56 | -0.625 | -3.26
C[C@@]12CCC3=C4CCC(=O)C=C4CC[C@H]3[C@@H]1CC[C@@]2(O)CC#N [Dienogest] | -0.894 | -0.798 | 0.045 | -0.975
COc1cccc(N(C)C(=S)Oc2ccc3c(c2)CCCC3)n1 [Liranaftate] | -1 | -1.61 | -3.14 | -2.65
Cc1cc(/C=C/C#N)cc(C)c1Nc1ccnc(Nc2ccc(C#N)cc2)n1 [Rilpivirine] | -0.945 | -1.79 | -0.0555 | -1.58
CCCNCC(O)COc1ccccc1C(=O)CCc1ccccc1 (stereo unspecified) [Propafenone HCl] | -0.217 | 1.16 | 0.42 | 0.885
CCOC(=O)c1ccc(NC2CCCCC2)c(N)c1 [Ferrostatin-1 (Fer-1)] | -0.0316 | -1.3 | -6.66 | -2.56
CCc1c2c(nc3ccc(OC(=O)N4CCC(N5CCCCC5)CC4)cc13)-c1cc3c(c(=O)n1C2)COC(=O)[C@@]3(O)CC [Irinotecan] | -0.189 | -0.195 | -0.266 | -0.169
Cl.OC(CCN1CCCC1)(c1ccccc1)C1CCCCC1 (stereo unspecified) [Procyclidine HCl] | 0.0954 | -0.0262 | -0.0763 | -0.491

2 records drawn at random from the list so far, as already listed:
Structure (SMILES) | OMR-Perf [1] | Prob-Test [2] | Prob-Naive [3] | Prob-Train [4]
Cc1cc(/C=C/C#N)cc(C)c1Nc1ccnc(Nc2ccc(C#N)cc2)n1 [Rilpivirine] | -0.945 | -1.79 | -0.0555 | -1.58
CCCNCC(O)COc1ccccc1C(=O)CCc1ccccc1 (stereo unspecified) [Propafenone HCl] | -0.217 | 1.16 | 0.42 | 0.885
